Publication PMC7862700
The entries are a selection whose mix differs from that of the whole data set. At the low end of the ranking the order means little.

The chains behind the UniProt entries cited, without tags or fusion partners. Where a name states a change or a piece, a line headed by the entry shows the natural chain unless it says otherwise.
UniProt O43186: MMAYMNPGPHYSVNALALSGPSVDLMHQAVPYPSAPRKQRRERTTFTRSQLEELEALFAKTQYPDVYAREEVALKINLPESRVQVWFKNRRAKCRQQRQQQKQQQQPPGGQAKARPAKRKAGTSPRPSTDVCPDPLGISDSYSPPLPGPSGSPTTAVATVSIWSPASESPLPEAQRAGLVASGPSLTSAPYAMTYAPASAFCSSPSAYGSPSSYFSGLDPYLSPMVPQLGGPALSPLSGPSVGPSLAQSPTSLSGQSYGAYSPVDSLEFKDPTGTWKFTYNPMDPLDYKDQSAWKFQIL

Key:
Assay in all cases: DAPPL (digital affinity profiling via proximity ligation, sequencing)
Conditions in all cases: 10 mM Tris-HCl pH 7.5, 50 mM NaCl, 1 mM DTT, 4% glycerol, room temperature, 30 min; GST-TFs on glutathione beads, 16-mer random dsDNA library, 0.1% …; high values mean tight binding; double strand, one strand shown; scale: fold enrichment (6-mer frequency, TF over GST control)
FEV = target: T1, FEV (UniProt Q99581)
T1 sequence: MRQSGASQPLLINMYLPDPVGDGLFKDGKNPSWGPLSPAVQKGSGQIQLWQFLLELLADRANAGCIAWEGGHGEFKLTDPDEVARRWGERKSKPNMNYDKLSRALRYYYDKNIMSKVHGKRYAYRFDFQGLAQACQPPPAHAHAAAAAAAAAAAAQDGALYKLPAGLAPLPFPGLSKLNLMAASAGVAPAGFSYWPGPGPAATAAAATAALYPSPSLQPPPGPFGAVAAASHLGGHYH

CRX = CRX (UniProt O43186)
ELF5 = target: T2, ELF5 (UniProt Q9UKW6-2)
T2 sequence: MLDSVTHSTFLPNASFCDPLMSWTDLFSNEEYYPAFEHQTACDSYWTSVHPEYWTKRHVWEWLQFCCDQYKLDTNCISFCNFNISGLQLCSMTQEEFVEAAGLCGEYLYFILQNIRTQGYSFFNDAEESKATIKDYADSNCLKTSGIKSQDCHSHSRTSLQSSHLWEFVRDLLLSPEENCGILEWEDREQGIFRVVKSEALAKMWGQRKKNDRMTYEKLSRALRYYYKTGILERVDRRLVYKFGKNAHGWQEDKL

Sequence	binding signal (FEV)	binding signal (CRX)	binding signal (ELF5)
CCCGTC	1.09	0.849	
CTTTGC			1.29
CCGCTT			2.05
GCCCGG	1.04	0.635	
TGACAT	1.23	0.975	
ACTGGT	0.966	0.895	
ATTTTA	1.25	1.83	
AGGAAC	0.925	0.653	
GACTTT	1.14	1.37	
ACTTAG			0.993
TCTGCG			1.15
AGTGAC	1.11	0.745	
TGATTC			1.03
GACACT	0.975	0.731	
AATGTT			1.62
AGAATA	0.992	1.42	
GTTTCA	1.31	0.926	
ATTATA	1.32	3.2	
ATGCAG	1.11	0.86	
ATCCCA			1.17
GTGTTT	1.09	0.944	
GGCTAA			0.939
CGTTCC	1.5	0.983	
ACTCAT			1.32

Sequence	binding signal (FEV)	binding signal (CRX)	binding signal (ELF5)
CCAATA			1.13
CCTAGC			1.06
TCCTCG			1.93
CCTAAC			1.39
ACCGCC			1.23
CATTAA			0.971
CCTTTT			1.61
ATCCGG			3.06
AAGCAT			1.06
CGAAAT			0.956
CTAACA			1.15
GCCGAT			0.996
TCCTGG			2.35
CCTGAA			1.5
GGGTTT			1.1
TCCTTA			2.6
ATAGCC			0.965
AGCTGT			0.972
ACTACG			1.33
TAGTGG			1.12
TTCTAG			1.2
CCTCCG			1.35
TCAACG			0.994
CTATCG			0.974

Sequence	binding signal (FEV)	binding signal (CRX)	binding signal (ELF5)
TTATCC			1.56
CTCATA			1.39
TAACCG			1.05
GTTTTT			1.36
TAGAAC			0.926
TACGGA			1.51
TGCTTA			1.03
TAATAC			1.09
TCAAAG			1.04
TGACTA			0.991
TCAGCC			0.895
TTGTTT			1.37
GCCTAA			1.18
TTTCAT			1.23
AATCTT			1.43
CGTTTC			2.04
TAGCAG			1.05
CGTAAA	1.04		1.14
TCAATC	0.995		0.994
TATGAG	0.898		0.999
AAGCCG	0.947		0.893
TCGTAT	1.05		1.01
ATAAGC	1.02		0.995
GTCTCC			1.4

Sequence	binding signal (FEV)	binding signal (CRX)	binding signal (ELF5)
TCTAGG	1		1.07
CAGATA	0.907		0.939
ATTAGA	0.821		0.836
TCGAAG	0.844		0.867
AGTTTA	0.856		0.979
TCAGCT	0.991		0.948
TTCCTA	1.62		2.04
AGATAT	0.875		1.06
GATTAG	0.794		0.809
AGCGAT	1.05		0.996
TTCAAC	1.29		1.27
TTGAGA	0.925		0.856
GTAAGC	0.898		0.934
TCTCCT	1.43		1.41
TCTCCA			1.37
GGCTTT	0.974		0.939
GCATTA	0.774		0.782
AGGTTT	0.92		1.04
CCAAAG	0.972		0.891
TCGAGA	0.6		0.581
TCGTTA	0.859		0.931
CTTAAA	1.21		1.16
AGGGTT	0.895		0.913
TAGCGT	0.931		0.931

Sequence	binding signal (FEV)	binding signal (CRX)	binding signal (ELF5)
CTACCA	1.14		1.26
GCGATT	0.892		0.87
GATAAA	0.949		0.946
TTCTGT	1.27		1.29
ATTAAC	1.27		1.23
CCAGCT	0.971		0.924
GAATTA	0.983		1.03
GAATCA	0.895		0.866
TGAATC	0.955		0.924
TTAGGA	0.885		0.975
CAGCCT	1.02		0.908
CGAGAT	0.833		0.847
AGCCTA	1.01		0.991
CGAATC	0.998		0.969
CAAGTA	1.04		1.06
AGATCA	0.84		0.772
GATAAG	0.785		0.951
TTAGAG	0.83		0.828
CTTGAA	1.05		1.15
CTAGAA	0.977		0.991
GGCTTG	1.01		0.982
AGAATC	0.912		0.946
TCAGTA	0.994		0.918
GGGGCT	0.998		0.925

Shown as labelled records: part of the list above.
ACCGCC
  binding signal (ELF5): 1.23
CATTAA
  binding signal (ELF5): 0.971
CCTTTT
  binding signal (ELF5): 1.61
ATCCGG
  binding signal (ELF5): 3.06
